From the supplement of paper PMC4604168 (melanoma cell lines)
This is one part of the list. Single values are uncertain, as repeats are few or missing.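 The apoptosis fraction was the count of cleaved-PARP antibody-stained nuclei relative to all DNA-stained nuclei, imaged in 1,536-well plates. Screening doses were set so most cells survived, and baseline and induced cleaved-PARP levels vary greatly across cell lines.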

Tested on: CBRC013 (line from a melanoma biopsy)
Experiment: cleaved PARP positive nuclei fraction relative to DMSO control; melanoma cells; higher = more apoptosis
Conditions: library dose: low library concentration; 72 h

| Structure (SMILES) | cleaved PARP positive nuclei fraction [%] |
| --- | --- |
| COCC[n+]1c2c(n(Cc3cnccn3)c1C)C(=O)c1ccccc1C2=O + CN(NC(=O)CC(=O)NN(C)C(=S)c1ccccc1)C(=S)c1ccccc1 [STA4783] (first compound 0.0004 µM, partner dose 0.006 µM) | 130 |
| Cn1nnc2c(C(N)=O)ncn2c1=O [temozolomide] + CC1(C)NC(=O)N(c2ccc([N+](=O)[O-])c(C(F)(F)F)c2)C1=O [nilutamide] (first compound 2 µM, partner dose 1 µM) | 124 |
| COCC[n+]1c2c(n(Cc3cnccn3)c1C)C(=O)c1ccccc1C2=O + O=C(CCCCCCC(=O)Nc1ccccc1)NO [vorinostat] (first compound 0.0004 µM, partner dose 0.08 µM) | 99.2 |

Tested on: CBRC014 (line from a melanoma biopsy)
Experiment: as above
Conditions: library dose: low library concentration; 72 h

| Structure (SMILES) | cleaved PARP positive nuclei fraction [%] |
| --- | --- |
| Cc1nc(Nc2ncc(C(=O)Nc3c(C)cccc3Cl)s2)cc(N2CCN(CCO)CC2)n1 [dasatanib] + O=C(CCCCCCC(=O)Nc1ccccc1)NO [vorinostat] (first compound 0.004 µM, partner dose 0.08 µM) | 99.1 |
| Nc1cccc2c1CN(C1CCC(=O)NC1=O)C2=O (stereo unspecified) [lenalidomide] + CC(C)(C)c1cnc(CSc2cnc(NC(=O)C3CCNCC3)s2)o1 [SNS-032] (first compound 1 µM, partner dose 0.01 µM) | 167 |
| OCc1c[nH]c2ccccc12 [Indole-3-carbinol] + Cc1ccc(NC(=O)c2cccc(N(C)C)c2)cc1NC(=O)c1ccc(O)cc1 [ZM336372] (first compound 0.8 µM, partner dose 2 µM) | 104 |
| COc1cc(Nc2ncc(F)c(Nc3ccc4c(n3)NC(=O)C(C)(C)O4)n2)cc(OC)c1OC [Tamatinib] + COc1cc2c(Oc3ccc4[nH]c(C)cc4c3F)ncnc2cc1OCCCN1CCCC1 [cediranib] (first compound 0.4 µM, partner dose 0.4 µM) | 178 |
| C#Cc1cccc(Nc2ncnc3cc(OCCOC)c(OCCOC)cc23)c1 [erlotinib] + CC(C)(C)c1cnc(CSc2cnc(NC(=O)C3CCNCC3)s2)o1 [SNS-032] (first compound 0.8 µM, partner dose 0.01 µM) | 146 |
| Clc1ccc(Nc2nnc(Cc3ccncc3)c3ccccc23)cc1 [vatalanib] + Cc1cc(N2CCOCC2)cc2[nH]c(-c3c(NC[C@@H](O)c4cccc(Cl)c4)cc[nH]c3=O)nc12 [BMS536924] (first compound 2 µM, partner dose 0.2 µM) | 99.4 |
| CC(=O)c1c(C)c2cnc(Nc3ccc(N4CCNCC4)cn3)nc2n(C2CCCC2)c1=O [palbociclib] + Cn1cncc1[C@@](N)(c1ccc(Cl)cc1)c1ccc2c(c1)c(-c1cccc(Cl)c1)cc(=O)n2C [tipifarnib] (first compound 0.04 µM, partner dose 0.01 µM) | 98.9 |
| C[C@]1(c2nc3c(C(N)=O)cccc3[nH]2)CCCN1 [Veliparib] + Cc1ccc(NC(=O)c2cccc(N(C)C)c2)cc1NC(=O)c1ccc(O)cc1 [ZM336372] (first compound 1.4 µM, partner dose 2 µM) | 166 |
| C=CCn1c(=O)c2cnc(Nc3ccc(N4CCN(C)CC4)cc3)nc2n1-c1cccc(C(C)(C)O)n1 + CN(C)S(=O)(=O)c1ccc2c(c1)/C(=C/c1cc3c([nH]1)CCCC3)C(=O)N2 [SU6656] (first compound 0.02 µM, partner dose 0.4 µM) | 122 |
| Clc1ccc(Nc2nnc(Cc3ccncc3)c3ccccc23)cc1 [vatalanib] + O=C(CCCCCCC(=O)Nc1ccccc1)NO [vorinostat] (first compound 2 µM, partner dose 0.08 µM) | 129 |
| OCc1c[nH]c2ccccc12 [Indole-3-carbinol] + COc1cc(Nc2ncc(F)c(Nc3ccc4c(n3)NC(=O)C(C)(C)O4)n2)cc(OC)c1OC [Tamatinib] (first compound 0.8 µM, partner dose 0.4 µM) | 96.6 |
| COCC[n+]1c2c(n(Cc3cnccn3)c1C)C(=O)c1ccccc1C2=O + C=CCn1c(=O)c2cnc(Nc3ccc(N4CCN(C)CC4)cc3)nc2n1-c1cccc(C(C)(C)O)n1 [MK1775] (first compound 0.0004 µM, partner dose 0.02 µM) | 91.7 |
| C=CCNC1=C2C[C@@H](C)C[C@H](OC)[C@H](O)[C@@H](C)/C=C(\C)[C@H](OC(N)=O)[C@@H](OC)/C=C\C=C(/C)C(=O)NC(=CC1=O)C2=O [Tanespimycin] + COc1cc(Nc2ncc(F)c(Nc3ccc4c(n3)NC(=O)C(C)(C)O4)n2)cc(OC)c1OC [Tamatinib] (first compound 0.002 µM, partner dose 0.4 µM) | 551 |
| OCc1c[nH]c2ccccc12 [Indole-3-carbinol] + C=CCn1c(=O)c2cnc(Nc3ccc(N4CCN(C)CC4)cc3)nc2n1-c1cccc(C(C)(C)O)n1 [MK1775] (first compound 0.8 µM, partner dose 0.02 µM) | 75 |
| Cc1ccc(NC(=O)c2cccc(N(C)C)c2)cc1NC(=O)c1ccc(O)cc1 + CN(NC(=O)CC(=O)NN(C)C(=S)c1ccccc1)C(=S)c1ccccc1 [STA4783] (first compound 2 µM, partner dose 0.006 µM) | 1330 |
| Clc1ccc(Nc2nnc(Cc3ccncc3)c3ccccc23)cc1 [vatalanib] + COc1cc2c(Oc3ccc4[nH]c(C)cc4c3F)ncnc2cc1OCCCN1CCCC1 [cediranib] (first compound 2 µM, partner dose 0.4 µM) | 102 |
| Cn1nnc2c(C(N)=O)ncn2c1=O [temozolomide] + O=C(O)c1ccc(-c2c[nH]c3ncc(-c4ccccc4)cc23)cc1C1CCCC1 [GSK650394] (first compound 2 µM, partner dose 0.16 µM) | 475 |
| CC1(C)NC(=O)N(c2ccc([N+](=O)[O-])c(C(F)(F)F)c2)C1=O [nilutamide] + CC(C)(C)c1cnc(CSc2cnc(NC(=O)C3CCNCC3)s2)o1 [SNS-032] (first compound 1 µM, partner dose 0.01 µM) | 101 |
| CC(C)(C)c1cnc(CSc2cnc(NC(=O)C3CCNCC3)s2)o1 + CN(C)S(=O)(=O)c1ccc2c(c1)/C(=C/c1cc3c([nH]1)CCCC3)C(=O)N2 [SU6656] (first compound 0.01 µM, partner dose 0.4 µM) | 106 |
| CC(=O)c1c(C)c2cnc(Nc3ccc(N4CCNCC4)cn3)nc2n(C2CCCC2)c1=O [palbociclib] + CN(C)S(=O)(=O)c1ccc2c(c1)/C(=C/c1cc3c([nH]1)CCCC3)C(=O)N2 [SU6656] (first compound 0.04 µM, partner dose 0.4 µM) | 134 |
| CO[C@@H]1[C@H](N(C)C(=O)c2ccccc2)C[C@H]2O[C@]1(C)n1c3ccccc3c3c4c(c5c6ccccc6n2c5c31)C(=O)NC4 [Midostaurin] + C[C@@H]1CCN(C(=O)CC#N)C[C@@H]1N(C)c1ncnc2[nH]ccc12 [CP690550] (first compound 0.08 µM, partner dose 1 µM) | 103 |
| O=C(CCCCCCC(=O)Nc1ccccc1)NO [vorinostat] + CC1(C)NC(=O)N(c2ccc([N+](=O)[O-])c(C(F)(F)F)c2)C1=O [nilutamide] (first compound 0.08 µM, partner dose 1 µM) | 64.2 |
| Cc1ccc(NC(=O)c2cccc(N(C)C)c2)cc1NC(=O)c1ccc(O)cc1 + COc1cc2c(Oc3ccc4[nH]c(C)cc4c3F)ncnc2cc1OCCCN1CCCC1 [cediranib] (first compound 2 µM, partner dose 0.4 µM) | 97.8 |
| OCc1c[nH]c2ccccc12 [Indole-3-carbinol] + CN(NC(=O)CC(=O)NN(C)C(=S)c1ccccc1)C(=S)c1ccccc1 [STA4783] (first compound 0.8 µM, partner dose 0.006 µM) | 496 |
| Cn1c(Nc2ccc(C(F)(F)F)cc2)nc2cc(Oc3ccnc(-c4ncc(C(F)(F)F)[nH]4)c3)ccc21 + NCC(=O)Nc1ccc(-n2nc(C(F)(F)F)cc2-c2ccc3c(ccc4ccccc43)c2)cc1 [OSU03012] (first compound 0.08 µM, partner dose 1 µM) | 84.6 |
| CO[C@@H]1[C@H](N(C)C(=O)c2ccccc2)C[C@H]2O[C@]1(C)n1c3ccccc3c3c4c(c5c6ccccc6n2c5c31)C(=O)NC4 [Midostaurin] + COc1cc2c(Oc3ccc4[nH]c(C)cc4c3F)ncnc2cc1OCCCN1CCCC1 [cediranib] (first compound 0.08 µM, partner dose 0.4 µM) | 83.7 |
| C=CCNC1=C2C[C@@H](C)C[C@H](OC)[C@H](O)[C@@H](C)/C=C(\C)[C@H](OC(N)=O)[C@@H](OC)/C=C\C=C(/C)C(=O)NC(=CC1=O)C2=O [Tanespimycin] + O=C(O)c1ccc(-c2c[nH]c3ncc(-c4ccccc4)cc23)cc1C1CCCC1 [GSK650394] (first compound 0.002 µM, partner dose 0.16 µM) | 155 |
| CC1(C)NC(=O)N(c2ccc([N+](=O)[O-])c(C(F)(F)F)c2)C1=O [nilutamide] + C=CCn1c(=O)c2cnc(Nc3ccc(N4CCN(C)CC4)cc3)nc2n1-c1cccc(C(C)(C)O)n1 [MK1775] (first compound 1 µM, partner dose 0.02 µM) | 108 |
